Results are given in words; binding and its absence hold for the method and conditions named. Binding seen in cells or lysates may run through a third protein. Some entries that bind do so weakly or less than the wild type. Tags and fused reporters may be left off the sequences shown.
T1: COX11 (human (endogenous in HEK293)) (UniProt Q9Y6N1)
T1 sequence: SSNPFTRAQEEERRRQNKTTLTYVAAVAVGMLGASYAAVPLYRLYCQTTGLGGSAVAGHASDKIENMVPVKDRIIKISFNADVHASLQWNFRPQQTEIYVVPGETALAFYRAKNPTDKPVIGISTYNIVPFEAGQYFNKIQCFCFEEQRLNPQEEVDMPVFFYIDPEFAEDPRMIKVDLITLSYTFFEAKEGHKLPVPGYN


Target: T1, COX11 (human (endogenous in HEK293))
Assay: co-IP; COX11 immunoprecipitates (IP: COX11) from lysates of cells expressing vector, Flag-WARS2 or Flag-WARS2(L53F), immunoblotted for COX11 and Flag; lysis in 20 mM HEPES pH 7.4, 137 mM NaCl, 1% Triton X-100

Binder	binding
Flag-tagged wild-type WARS2 (enzyme, UniProt Q9UGM6 19-360) LHKGSAAAPALQKDSKKRVFSGIQPTGILHLGNYLGAIESWVRLQDEYDSVLYSIVDLHSITVPQDPAVLRQSILDMTAVLLACGINPEKSILFQQSQVSEHTQLSWILSCMVRLPRLQHLHQWKAKTTKQKHDGTVGLLTYPVLQAADILLYKSTHVPVGEDQVQHMELVQDLAQGFNKKYGEFFPVPESILTSMKKVKSLRDPSAKMSKSDPDKLATVRITDSPEEIVQKFRKAVTDFTSEVTYDPAGRAGVSNIVAVHAAVTGLSVEEVVRRSAGMNTARYKLAVADAVIEKFAPIKREIEKLKLDKDHLEKVLQIGSAKAKELAYTVCQEVKKLVGFL	binds
Flag-tagged mutant WARS2(L53F) (enzyme, UniProt Q9UGM6 19-360) LHKGSAAAPALQKDSKKRVFSGIQPTGILHLGNYFGAIESWVRLQDEYDSVLYSIVDLHSITVPQDPAVLRQSILDMTAVLLACGINPEKSILFQQSQVSEHTQLSWILSCMVRLPRLQHLHQWKAKTTKQKHDGTVGLLTYPVLQAADILLYKSTHVPVGEDQVQHMELVQDLAQGFNKKYGEFFPVPESILTSMKKVKSLRDPSAKMSKSDPDKLATVRITDSPEEIVQKFRKAVTDFTSEVTYDPAGRAGVSNIVAVHAAVTGLSVEEVVRRSAGMNTARYKLAVADAVIEKFAPIKREIEKLKLDKDHLEKVLQIGSAKAKELAYTVCQEVKKLVGFL	binds

Reference: article PMC4941120
